PubChem BioAssay AID686938 – Drosophila RNAi Screening Center, 2013
The deposit covers about 23,000 reagents; shown is an unselected part of those that have a named target and a result. Over the whole deposit, 75 (0.33%) are marked active. 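Raw plate signals without normalisation; calls rest on plate z-scores that were not deposited; ratio present for only 364 wells.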 A number with no mark means an inactive call. Reagent sequences are not shown. The record does not give: the dose of the treatment.

Aim: 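Fly genes required for calcium entry once internal stores are emptied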 (primary screen)
Cell system: Drosophila S2R+ cells
Reagents: long dsRNA against Drosophila genes, about 0.25 µg dsRNA per well, roughly 10,000 cells
Time to read-out: 5 days of knock-down before the calcium assay
Challenge: thapsigargin (SERCA pump blocker) to empty calcium stores; entry signal taken 4 min after adding it
Measured: 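Duplicate raw fluo-4 intensities per well from a plate reader, at rest and four minutes after thapsigargin emptied calcium stores; entry-to-rest ratio filled for only some wells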
Direction: calcium entry signal: higher = stronger calcium signal after store depletion; resting calcium signal: higher = higher resting calcium signal
Call rule: 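Hit if the duplicate-averaged plate z-score for entry over resting signal is under −3; wells with weak total dye signal (Fmax z < −2) or more than 5 off-targets removed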
Meaning of the calls: active = strongly reduced calcium entry; inactive = no strong reduction

no.	gene	PubChem SID	calcium entry signal, replicate 1 (fluorescence units)	calcium entry signal, replicate 2 (fluorescence units)	resting calcium signal, replicate 1 (fluorescence units)	resting calcium signal, replicate 2 (fluorescence units)
1	Adsl	SID104195292	3.29e7	2.81e7	1.63e7	1.32e7
2	CG6321	SID104190415	4.37e7	3.66e7	2.78e7	1.42e7
3	miple1	SID104188514	4.21e7	5.13e7	2.20e7	2.18e7
4	Nup98-96	SID104194001	1.86e7	2.02e7	1.27e7	1.17e7
5	Nup98-96	SID104194002	2.63e7	2.23e7	1.64e7	1.37e7
6	CG3225	SID104180370	3.19e7		1.80e7	
7	CG6026	SID104195742	2.50e7	2.66e7	3.22e7	1.26e7
8	Pex16	SID104191542	3.52e7	4.57e7	1.63e7	3.12e7
9	CG9117	SID104182933	4.08e7	3.44e7	1.95e7	1.64e7
10	Stoml2	SID104184118	4.15e7		1.85e7	
11	CR17438	SID104197917	3.93e7	5.00e7	1.83e7	2.42e7
12	CG44153	SID104180910	3.79e7	5.52e7	1.97e7	2.38e7
13	CG44153	SID104182020	3.97e7		2.04e7	
14	CG44153	SID104182021	1.97e7	3.32e7	8.61e6	1.45e7
15	CG44153	SID104182023	3.34e7	5.38e7	1.55e7	2.23e7
16	CG44153	SID104182025	2.66e7	3.54e7	1.33e7	1.61e7
17	CG44153	SID104182694	1.89e7	2.91e7	9.02e6	1.32e7
18	CG44153	SID104182695	2.24e7	3.16e7	1.12e7	1.39e7
19	aspr	SID104200481	4.28e7	5.41e7	2.13e7	2.26e7
20	aspr	SID104200482	5.01e7	4.40e7	2.50e7	2.05e7
21	unpg	SID104187505	3.83e7	4.32e7	1.75e7	1.74e7
22	CG6592	SID104190461	1.99e7	3.43e7	1.11e7	1.52e7
23	CG5056	SID104182600	3.12e7	4.96e7	1.59e7	2.13e7
24	CG42674	SID104189858	4.56e7	2.55e7	2.07e7	1.32e7
25	CG42674	SID104189859	2.29e7	3.64e7	1.14e7	1.63e7
26	CG42674	SID104190603	3.40e7	4.86e7	1.64e7	2.02e7
27	CG13325	SID104186154	3.58e7	3.90e7	1.66e7	1.84e7
28	ND-B14.5B	SID104180138	2.93e7	2.40e7	1.44e7	1.24e7
29	Or65c	SID104201100	2.62e7	2.63e7	1.48e7	1.14e7
30	abs	SID104192164	3.27e7	3.64e7	1.77e7	2.85e7
31	CG33483	SID104193811	3.74e7	4.55e7	1.95e7	1.75e7
32	CG12448	SID104181759	4.53e7	3.19e7	1.96e7	1.45e7
33	128up	SID104184819	3.64e7	3.08e7	1.57e7	1.52e7
34	plx	SID104192052	4.57e7	3.43e7	2.17e7	1.67e7
35	plx	SID104192177	4.30e7	4.51e7	2.19e7	2.28e7
36	plx	SID104202075	2.56e7	2.77e7	1.38e7	1.12e7
37	Ir67b	SID104189668	1.54e7	2.07e7	8.76e6	9.84e6
38	Trs23	SID104182982	3.88e7	4.58e7	1.81e7	1.90e7
39	CrzR	SID104189573	3.24e7	4.37e7	1.79e7	1.89e7
40	CrzR	SID104189574	3.07e7	5.00e7	1.62e7	2.12e7

Single entries from above.
For “resting calcium signal, replicate 1 (fluorescence units)”, CrzR [SID104189573] is entered as 1.79e7
Entry of CG44153 [SID104182695] in “calcium entry signal, replicate 1 (fluorescence units)”: 2.24e7
For “calcium entry signal, replicate 1 (fluorescence units)”, CG44153 [SID104182025] is entered as 2.66e7
Result for CG3225 [SID104180370] under “calcium entry signal, replicate 1 (fluorescence units)”: 3.19e7
Result of CrzR [SID104189574] under “calcium entry signal, replicate 2 (fluorescence units)”: 5.00e7
Entry of CG33483 [SID104193811] in “calcium entry signal, replicate 2 (fluorescence units)”: 4.55e7
